Reference: publication PMC8857481
Results are given in words; binding and its absence hold for the method and conditions named. Binding seen in cells or lysates may run through a third protein. Binding can be weak; no strength is given.

Target: FLAG-METTL5-WT (human)
Assay: co-IP; anti-FLAG M2 beads in clarified lysate of transfected HeLa cells, 1 h at 4 °C; 50 mM Tris pH 7.4, 150 mM NaCl, 10% glycerol, 1.5 mM MgCl2, 0.5 mM EDTA, 0.2% NP-40, 1 mM DTT; three washes; Western blot with anti-FLAG and anti-TRMT112

- binding: binds
B1: TRMT112 (protein, UniProt Q9UI30 1-125)
chain: MKLLTHNLLSSHVRGVGSRGFPLRLQATEVRICPVEFNPNFVARMIPKVEWSAFLEAADNLRLIQVPKGPVEGYEENEEFLRTMHHLLLEVEVIEGTLQCPESGRMFPISRGIPNMLLSEEETES
